The record followed here is PubChem BioAssay AID256 (DTP/NCI, 2004).

Molecules are shown by their SMILES. The list is a part of this screen's results and no random one: it is rich in T/C values a quarter to a half above the control, in often repeated tests (any T/C) and in doses without a T/C. Other doses and runs of a compound stand elsewhere. T/C: endpoint of the treated group in % of that of the vehicle group. Some entries give survivors of the animals treated and no T/C: the source holds a T/C of zero for them, seemingly a mark for toxic or unscored doses. Some doses without a T/C left all or most animals alive at the check, yet need not have been tolerated: survival well below the control is almost never listed, so the zero probably covers shortened survival too. Survivors were counted at the toxicity check, usually on the fifth day, unless a day is given; later deaths do not show. Schedules are NCI's codes, taken here to give the interval after Q, in days (D) or hours (H), and the number of doses after X. Some entries hold several experiments; the values are given in rising order. Where survival is the endpoint, this PubChem deposit counts one and a half times the control or more as active, and values a quarter to a half above the control carry no call in these data; other NCI protocols may use other cut-offs.

For the assay, the system named is CD2F1 mice, L1210 leukemia ip, survival T/C. Briefly: NCI In Vivo Anticancer Drug Screen. Data for tumor model L1210 Leukemia (intraperitoneal) in CD2F1 (CDF1) mice. Conditions: T/C endpoint: mean survival time, higher T/C = longer survival. Summed up: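 Vehicle-treated tumor-bearing mice served as controls (C) for compound-treated mice (T). Reported figure is T divided by C.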

Setting [1] is: dose: 400.0 mg/kg/injection, schedule: Q04DX003 (ip), vehicle: saline.
Where [2] appears, read: dose: 400.0 mg/kg/injection, schedule: Q01DX001 (ip), vehicle: saline with Tween-80.
Setting [3] is: dose: 400.0 mg/kg/injection, schedule: Q04DX003 (ip), vehicle: saline with Tween-80.
Setting [4] is: dose: 300.0 mg/kg/injection, schedule: Q01DX001 (ip), vehicle: saline.
[5] abbreviates: dose: 100.0 mg/kg/injection, schedule: Q04DX003 (ip), vehicle: saline with Tween-80.
Where [6] appears, read: dose: 200.0 mg/kg/injection, schedule: Q04DX003 (ip), vehicle: saline with Tween-80.
[7] abbreviates: dose: 200.0 mg/kg/injection, schedule: Q01DX009 (ip), vehicle: water.
The mark [8] stands for this setting: dose: 200.0 mg/kg/injection, schedule: Q01DX009 (ip), vehicle: saline with Tween-80.
The mark [9] stands for this setting: dose: 400.0 mg/kg/injection, schedule: Q01DX009 (ip), vehicle: saline with Tween-80.
The mark [10] stands for this setting: dose: 100.0 mg/kg/injection, schedule: Q04DX003 (ip), vehicle: saline.
[11] abbreviates: dose: 200.0 mg/kg/injection, schedule: Q04DX003 (ip), vehicle: saline.

On to `CCCCC#CCOCC(O)CCl` (centres undefined), for which, where the note is “dose: 400.0 mg/kg/injection, schedule: Q01DX009 (ip), vehicle: water”, the survivor count is listed as 0 of 6.
In the case of `CCC(C)(O)C(C)N(C)C1CCCCC1` (centres undefined), the survivor count under setting [1] was 0 of 4 and 1 of 4.
On to `NSc1ccc([N+](=O)[O-])cc1`, for which the survivor count (dose: 100.0 mg/kg/injection, schedule: Q01DX001 (ip), vehicle: other) is 1 of 6.
Turning to `Cc1ccc(S(=O)(=O)N(CCCc2c(C)nc(N)nc2Nc2ccccc2)c2ccccc2)cc1`, the survivor count is on record as 3 of 6 (dose: 200.0 mg/kg/injection, schedule: Q01DX001 (ip), vehicle: saline with Tween-80) and 0 of 6 under setting [2].
As for `CC(C)(C)NSc1nc2ccccc2s1`, the survivor count under setting [3] is on record as 6 of 6.
Consider `CSc1nc(=O)[nH]nc1Sc1ccccc1`, for which the survivor count under setting [4] was 0 of 6.
As for `CCCOC(=O)OCCC`, under setting [5], the survivor count was 3 of 6.
In the case of `CN1CCC(CNC(=O)CCCCCCCCC(=O)NCC2(c3ccccc3)CCN(C)CC2)(c2ccccc2)CC1`, the survivor count (dose: 5.0 mg/kg/injection, schedule: Q04DX003 (ip), vehicle: saline with Tween-80) was 6 of 6.
Consider `CSC(=CC(=O)c1ccccc1)SC`, for which the survivor count under setting [4] is on record as 0 of 6.
With `O=[N+]([O-])c1ccc(Sc2ncnc3nc[nH]c23)c([N+](=O)[O-])c1`, the T/C is, setting by setting: (dose: 7.4 mg/kg/injection, schedule: Q01DX005 (ip), vehicle: other) 137 % of control; (dose: 11.0 mg/kg/injection, schedule: Q01DX005 (ip), vehicle: other) 146 % of control.
In the case of `O=C1NC(CCl)(CCl)CO1`, the survivor count runs as follows: (dose: 75.0 mg/kg/injection, schedule: Q01DX001 (ip), vehicle: saline) 0 of 6; (dose: 150.0 mg/kg/injection, schedule: Q01DX001 (ip), vehicle: saline) 0 of 6; under setting [4], 0 of 6.
For `C[n+]1c(/C=C/c2ccccc2Cl)ccc2ccccc21`, the survivor count under setting [5] is on record as 3 of 6 and the survivor count under setting [6] is given as 3 of 6.
Turning to `c1ccc(OCCC[P+](c2ccccc2)(c2ccccc2)c2ccccc2)cc1`, under “dose: 40.0 mg/kg/injection, schedule: Q01DX009 (ip), vehicle: saline”, the survivor count is reported as 3 of 6.
Take `CCOC(=O)C(NCc1ccccc1)C(=O)OCC`: the survivor count under setting [7] was 3 of 6.
Take `CCCCCCCC(=O)N/N=C(\CO)[C@]1(O)Cc2c(O)c3c(c(O)c2[C@@H](OC2CC(N)C(O)C(C)O2)C1)C(=O)c1c(OC)cccc1C3=O` (some centres undefined): the T/C is 131 % of control (dose: 6.0 mg/kg/injection, schedule: Q01DX009 (ip), vehicle: suspension in saline); 138 % of control (dose: 12.0 mg/kg/injection, schedule: Q01DX009 (ip), vehicle: saline); 126 % of control (dose: 24.0 mg/kg/injection, schedule: Q01DX009 (ip), vehicle: saline); 141 % of control (dose: 24.0 mg/kg/injection, schedule: Q01DX009 (ip), vehicle: suspension in saline); 148 % of control (dose: 48.0 mg/kg/injection, schedule: Q01DX009 (ip), vehicle: saline); 146 % of control (dose: 96.0 mg/kg/injection, schedule: Q01DX009 (ip), vehicle: suspension in saline).
Take `Cc1ccc(N=Nc2ccc(N(C)C)cc2)c2cccnc12`: the survivor count under setting [8] is 6 of 6 and the survivor count under setting [9] was 5 of 6.
For `C=CCCCCCCCCC(=O)N1CCOCC1`, the survivor count reads like this: (dose: 200.0 mg/kg/injection, schedule: Q04DX002 (ip), vehicle: saline) 1 of 3; (dose: 400.0 mg/kg/injection, schedule: Q04DX002 (ip), vehicle: saline) 1 of 3.
Turning to `CCCCOC(=O)CCl`, under “dose: 400.0 mg/kg/injection, schedule: Q01DX001 (ip), vehicle: saline”, the survivor count was 1 of 4.
For `NC(=O)CCC(N)C(=O)O.[Cl-].[Cl-].[Cl-].[Cl-].[Pt+2]` (centres undefined), the survivor count is, setting by setting: (dose: 50.0 mg/kg/injection, schedule: Q01DX009 (ip), vehicle: water) 4 of 6; (dose: 100.0 mg/kg/injection, schedule: Q01DX009 (ip), vehicle: water) 1 of 6; under setting [10], 0 of 6; under setting [7], 1 of 6; under setting [11], 0 of 6; under setting [1], 0 of 6.
In the case of `CN1CC=C(c2ccccc2)C(Br)C1` (centres undefined), the survivor count runs as follows: (dose: 100.0 mg/kg/injection, schedule: Q01DX009 (ip), vehicle: saline with Tween-80) 3 of 6; under setting [8], 0 of 6; under setting [9], 0 of 6.
On to `CC(=O)N(C(C)=O)c1ncc2ccccc2c1-c1ccc(N)cc1`, for which the survivor count reads like this: under setting [6], 0 of 4; under setting [3], 0 of 4.
As for `COC(=O)/C=C/C(=O)NC(N)=O`, the survivor count is, setting by setting: under setting [10], 3 of 6; under setting [11], 0 of 6; under setting [1], 0 of 6.
As to `O=C(NCCS)Nc1ccccc1`, the survivor count by setting is: under setting [5], 3 of 3; under setting [2], 3 of 6.
Regarding `CCC(C)C1NC(=O)C(NC(=O)c2c3nc4c(C(=O)NC5C(=O)NC(C(C)CC)C(=O)N6CCCC6C(=O)N(C)CC(=O)N(C)C(C(C)C)C(=O)OC5C)ccc(C)c4oc-3c(C)c(=O)c2N)C(C)OC(=O)C(C(C)C)N(C)C(=O)CN(C)C(=O)C2CCCN2C1=O` (centres undefined), the T/C by setting is: (dose: 1.0 mg/kg/injection, schedule: Q01DX001 (ip), vehicle: saline) 132 % of control; (dose: 2.0 mg/kg/injection, schedule: Q01DX001 (ip), vehicle: saline) 138 % of control.
In the case of `Cc1ccc(S(=O)(=O)Nc2ccccc2N(CCN(CCOS(=O)(=O)c2ccc(C)cc2)S(=O)(=O)c2ccc(C)cc2)S(=O)(=O)c2ccc(C)cc2)cc1`, the survivor count by setting is: under setting [5], 3 of 3; under setting [3], 3 of 3.
Take `Oc1ccc(Nc2c3ccccc3nc3c2ccc2ccccc23)cc1CN(CCCl)CCCl`: the T/C (dose: 1.56 mg/kg/injection, schedule: Q01DX009 (ip), vehicle: saline) is 136 % of control.
Take `O=C(Cl)N(c1ccccc1)c1ccccc1`: under setting [2], the survivor count was 1 of 3.
Take `O=[N+]([O-])c1ccc(N/N=C/C(Br)(Br)Br)c([N+](=O)[O-])c1`: the survivor count under setting [5] is 1 of 6.
Turning to `CC1(C)N=C(N)N=C(N)N1c1cccc(/C=C(\C#N)c2ccccc2)c1`, the survivor count (dose: 400.0 mg/kg/injection, schedule: Q04DX002 (ip), vehicle: Klucel (hydroxypropylcellulose) (HPC)) is given as 0 of 3.
Turning to `CC(C)c1cccc(O)c(=O)c1`, the survivor count under setting [8] is recorded as 3 of 6.
Take `O=C1NC(=O)c2ccc3c4c(ccc1c24)C(=O)NC3=O`: the survivor count (dose: 125.0 mg/kg/injection, schedule: Q01DX009 (ip), vehicle: saline with Tween-80) was 3 of 6 and the survivor count (dose: 250.0 mg/kg/injection, schedule: Q01DX009 (ip), vehicle: saline with Tween-80) was 2 of 6.
`O=C1NC(=O)C(c2ccccc2)(C2CCC2)N1` (centres undefined): the survivor count under setting [6] was 6 of 6.
Take `O=C1C(=O)C(Cl)=C(Cl)C(Cl)=C1Cl`: the survivor count (dose: 50.0 mg/kg/injection, schedule: Q01DX009 (ip), vehicle: saline with Tween-80) is listed as 2 of 6; the survivor count (dose: 100.0 mg/kg/injection, schedule: Q04DX003 (ip), vehicle: Klucel (hydroxypropylcellulose) (HPC)) was 3 of 6; the survivor count (dose: 200.0 mg/kg/injection, schedule: Q04DX003 (ip), vehicle: Klucel (hydroxypropylcellulose) (HPC)) is recorded as 0 of 6; the survivor count (dose: 400.0 mg/kg/injection, schedule: Q04DX003 (ip), vehicle: Klucel (hydroxypropylcellulose) (HPC)) is given as 0 of 6.
Turning to `CCNC(=O)OCC1C2=C(C(=O)C(C)=C(N)C2=O)N2CC3C(N3C)C12OC` (centres undefined), the T/C (dose: 200.0 mg/kg/injection, schedule: Q01DX001 (ip), vehicle: carboxymethylcellulose (CMC)) is 130 % of control.
On to `CC(=O)SCCCCl`, for which the survivor count (dose: 400.0 mg/kg/injection, schedule: Q01DX009 (ip), vehicle: saline) is recorded as 3 of 6.
